The whole screen tested about 330,000 compounds, of which about 7,700 (2.3%) were called active. Inconclusive means that the source gave no clear call. Such entries were picked first, then a sample of the others. The call rests on the fitted dose curve; in most records, active means well fitted inhibition curve with a large enough effect; inconclusive means small, poorly fitted or top-dose-only effect, or effect the other way; inactive means flat fitted curve, though single readings scatter. Potencies beside an inconclusive call are fits to weak or partial responses and may not hold up.
assay: qHTS screen for small molecules that inhibit ELG1-dependent DNA repair in human embryonic kidney (HEK293T) cells expressing luciferase-tagged ELG1; conditions: HEK293T ELG1-luciferase reporter, luminescence, 16 h, DNA damage induced by 5-fluorouridine; series mostly up to 46.1 µM; further: nearly all actives have a fitted effect of over 55% in size
Summary of the method: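 In this reporter screen, reduction of luminescence relative to DMSO vehicle indicated activity. Compounds and 5-fluorouridine were added together to 2,000 cells per well, incubated for 16 hr at 37 °C, then developed with ONE-Glo.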
Potency means the concentration at half of the fitted maximal effect.

| SMILES | Potency |
| --- | --- |
| CC(C)N1CCC(NC(=O)Nc2ccc3c(c2)OCO3)CC1 | inconclusive: 18.3 µM [activator, partial curve] |
| COCCCNC(=S)NNC(=O)c1ccc2c(c1)OCO2 | inconclusive: 1.78 µM [activator, partial curve, poor fit] |
| O=C(O)c1ccc(Nc2cnc3ccccc3n2)cc1 | inconclusive: 20.6 µM [activator, partial curve] |
| S=c1nc(Cc2ccccc2)[nH]c2ccccc12 | inconclusive: 13 µM [activator, partial curve, poor fit] |
| COc1ccc(-c2csc(NC(=O)CN3C(=O)NC4(CCCC4)C3=O)n2)c(OC)c1 | inactive |
| CC(=O)Nc1sc(C)c(C)c1C(=O)Nc1ccc(C)cc1 | inactive |
| Fc1ccc(OCc2nc(-c3ccc(Br)o3)no2)c(F)c1 | inconclusive: 13 µM [activator, partial curve] |
| CC(Oc1ccc(F)cc1)C(=O)N1CCN(c2ncccn2)CC1 (stereo unspecified) | inactive |
| Cn1c(=O)n(Cc2ccccc2Cl)c(=O)c2c1[nH]c(=S)n2C | inactive |
| CCOC(=O)c1c(-c2ccc(OC)c(OC)c2)csc1NC(=O)C1CCCO1 (stereo unspecified) | inconclusive: 29.1 µM [inhibitor, single point] |
| O=C(CSc1nnc(-c2ccccc2O)o1)N1CCCCC1 | inconclusive: 20.6 µM [activator, single point] |
| CC(=O)N1CCOc2cc(S(=O)(=O)N3CCN(c4ccccc4)CC3)c(Cl)cc21 | inactive |
| CN(C)/C=N/c1nc2ccc3c(c2s1)CCCC3 | inconclusive: 10 µM [activator, partial curve] |
| CC1CC(C)(C)NC(=S)N1CCC(=O)NCc1ccc(Cl)cc1 (stereo unspecified) | inconclusive: 32.6 µM [activator, partial curve, poor fit] |
| CCOC(=O)c1c(-n2cnnn2)sc2c1CCCC2 | inactive |
| CCN(CC)c1ccc(NC(=O)c2ccc(Br)o2)cc1 | inconclusive: 10.3 µM [activator, partial curve] |
| CC(C)CN(C(=O)COc1ccc(C(C)(C)C)cc1)C1CCS(=O)(=O)C1 (stereo unspecified) | inactive |
| CN(C)NC1CC(=O)N(c2ccccc2)C1=O (stereo unspecified) | inconclusive: 29.1 µM [inhibitor, single point] |
| O=c1c2ccccc2[nH]c(=S)n1CCCN1CCN(C2CCCCC2)CC1 | inactive |
| O=C(NC(=S)Nc1cc([N+](=O)[O-])ccc1Cl)c1ccccc1 | inconclusive: 5.8 µM [activator, partial curve] |
| CN(C)c1cc[n+](CC(=O)Nc2ccccc2C(F)(F)F)cc1 | inconclusive: 6.31 µM [activator, single point] |
| COc1cccc(-c2nc3cc(C)ccc3o2)c1 | inconclusive: 0.82 µM [activator, full curve] |
| Cc1ccc(C(=S)NCS(=O)(=O)c2ccc(C)cc2)cc1 | inactive |
| CCC(C)NC(=O)CSc1nc2cc(S(=O)(=O)N3CCOCC3)ccc2n1CC (stereo unspecified) | inactive |

| SMILES | Potency |
| --- | --- |
| O=C(Cn1c(NCCCO)nc2ccccc21)c1ccc(F)cc1 | inactive |
| CCOc1ccc(Oc2ccc(S(=O)(=O)N3CCOCC3)cc2N)cc1 | active: 9.2 µM |
| Cc1cc(C)n(-c2nc(O)cc(=O)[nH]2)n1 | inconclusive: 29.1 µM [activator, partial curve, poor fit] |
| COc1ccc(NC(=O)CCNS(=O)(=O)c2cccc3nsnc23)c(OC)c1 | inactive |
| Cc1c(NC(=O)CSC2=C(C#N)C(c3ccccc3F)CC(=O)N2)c(=O)n(-c2ccccc2)n1C (stereo unspecified) | inactive |
| O=C(CCc1ccccc1)Nc1cccnc1Cl | inconclusive: 16.4 µM [activator, partial curve] |
| COC(=O)C1=C(C(=O)OC)SC(=C2C(=S)C(C)(C)N(C(=O)CC(C)C)c3ccccc32)S1 | inconclusive: 6.51 µM [inhibitor, partial curve, poor fit] |
| CCOc1ccccc1C1CC(=O)NC2=C1C(=O)CCC2 (stereo unspecified) | inactive |
| O=C(CS(=O)(=O)c1c[nH]c2ccccc12)Nc1ccc2c(c1)OCCO2 | inconclusive: 29.1 µM [activator, single point] |
| CCN(CC)C(=O)CCCOc1ccc(Cl)cc1Cl | inconclusive: 18.4 µM [activator, partial curve] |
| COc1ccc(C(=O)Nc2ccc(C)cn2)c(OC)c1 | inconclusive: 0.206 µM [activator, partial curve] |
| COc1ccc(CN(C)C(=O)c2cnc(OC)cc2C(F)(F)F)c(OC)c1 | inconclusive: 10.3 µM [inhibitor, partial curve, poor fit] |
| CCN(CC)c1ccc(/C=N/OC(C)C(=O)Nc2ccc(C)cc2)cc1 (stereo unspecified) | inactive |
| Cc1cccc(N2CC(C(=O)Nc3nnc(SCC(=O)Nc4nccs4)s3)CC2=O)c1 (stereo unspecified) | inconclusive: 16.4 µM [activator, partial curve, poor fit] |
| CCc1ccc(C(=O)Nc2cccc(-c3nn[nH]n3)c2)s1 | inactive |
| CCCOC(=O)C[N+](C)(C)CCOC1CC2CCC1(C)C2(C)C (stereo unspecified) | inconclusive: 3.66 µM [inhibitor, single point] |
| CCc1sc(C(=O)Nc2cccc(C(C)=O)c2)cc1C | inconclusive: 5.8 µM [activator, full curve, poor fit] |
| Cc1sc(N)nc1-c1c(C)n(C)c2ccccc12 | inactive |
| Cc1nn(CC(=O)Nc2ccc(Cl)cc2)c(=O)c2cc(-c3ccccc3)nn12 | inconclusive: 32.6 µM [activator, partial curve, poor fit] |
| Cc1ccc(N(C)C(=O)C2CCCN2S(=O)(=O)c2ccc3c(c2)n(C)c(=O)c(=O)n3C)cc1 (stereo unspecified) | inactive |
| CCOC(=O)C1CCN(C(=O)c2cccc(S(=O)(=O)NCc3ccccc3)c2)CC1 | inactive |
| CCN(Cc1ccccc1)S(=O)(=O)c1ccc(C(=O)N(CCCN(C)C)c2nc3cc(OC)ccc3s2)cc1 | inconclusive: 6.51 µM [inhibitor, partial curve, poor fit] |
| CC(C)COc1ccc(C(=O)Nc2ccccc2[N+](=O)[O-])cc1 | inconclusive: 16.4 µM [activator, partial curve] |
| Cc1ccc(-c2nc(COC(=O)c3c(C)noc3C)cs2)cc1 | inconclusive: 3.55 µM [activator, single point] |

Single entries from above.
Potency with Cn1c(=O)n(Cc2ccccc2Cl)c(=O)c2c1[nH]c(=S)n2C reads inactive
Potency with Fc1ccc(OCc2nc(-c3ccc(Br)o3)no2)c(F)c1 reads inconclusive: 13 µM [activator, partial curve]
Potency with O=C(CCc1ccccc1)Nc1cccnc1Cl reads inconclusive: 16.4 µM [activator, partial curve]

The results go on:

| SMILES | Potency |
| --- | --- |
| O=c1[nH][nH]c2cc(=O)n(-c3cccc(C(F)(F)F)c3)nc12 | inactive |
| O=C(Nc1scc(-c2ccccc2)c1C(=O)O)c1ccccc1F | inconclusive: 20.6 µM [activator, single point] |
| c1ccc(CN2c3ccccc3-c3nc4ccccc4n3C2c2ccccn2)cc1 (stereo unspecified) | inconclusive: 8.91 µM [inhibitor, single point] |
| O=c1cc(CSc2nnc(Nc3ccccc3)s2)nc2sccn12 | inconclusive: 25.9 µM [inhibitor, partial curve, poor fit] |
| COc1cc(NC(=O)c2ccc3c(c2)S(=O)(=O)N=C2CCCCCN23)cc(OC)c1 | inactive |
| CCN(C(=O)COC(=O)CCOc1cccc(C)c1)c1c(N)n(Cc2ccccc2)c(=O)[nH]c1=O | inactive |
| Cn1nnnc1Sc1ncnc2scc(-c3cccs3)c12 | inconclusive: 16.4 µM [inhibitor, single point] |
| COc1ccc(C(=O)N2CCc3ccccc32)cc1 | inconclusive: 20.6 µM [activator, partial curve] |
| C=CCn1c(Cc2cccs2)nnc1SCC(=O)Nc1ccc(C(=O)OCC)cc1 | inconclusive: 35.5 µM [inhibitor, single point] |
| Cc1nn(-c2ccccc2)c2c1C(c1ccc(Cl)cc1)N(c1ccccc1)C(=O)N2 (stereo unspecified) | inconclusive: 29.1 µM [inhibitor, single point] |
| CCC(C(=O)Nc1ccc2c(c1)OCCO2)n1nnc2ccccc2c1=O (stereo unspecified) | inconclusive: 20.6 µM [activator, partial curve] |
| Cc1ccc(OCC(=O)NNC(=S)NC(=O)C2CCCCC2)c(C)c1 | inactive |
| O=C(NNC(=O)c1cc([N+](=O)[O-])ccc1Cl)c1cccnc1 | inactive |
| CCN(CC)S(=O)(=O)c1cccc(NC(=S)NC(=O)/C=C/c2ccc(S(=O)(=O)N3CCOCC3)cc2)c1 | inconclusive: 11.6 µM [inhibitor, partial curve] |
| O=C(O)CCN(CC(=O)c1ccc(Cl)cc1)S(=O)(=O)c1ccc([N+](=O)[O-])cc1 | inactive |
| CC(=O)c1coc2c1cc(O)c1ccccc12 | inconclusive: 18.4 µM [activator, single point] |
| Cc1ccc(-c2cc(-c3ccccc3Cl)[nH]n2)c(O)c1 | inconclusive: 0.731 µM [activator, single point] |
| O=C(c1cc2ccccc2oc1=O)N(Cc1ccc(F)cc1)C1CCS(=O)(=O)C1 (stereo unspecified) | inconclusive: 18.3 µM [activator, partial curve] |
| Cc1c(NC(=O)CN2C(=O)NC3(CCC(C)CC3)C2=O)c(=O)n(-c2ccccc2)n1C (stereo unspecified) | inactive |
| O=C(COC(=O)[C@H](Cc1ccccc1)NC(=O)c1cccs1)Nc1ccccc1C(F)(F)F | inconclusive: 14.6 µM [activator, partial curve, poor fit] |
| COc1ccc(-c2nnc(SCC(=O)N3CCCC3)o2)c(OC)c1 | inconclusive: 20.6 µM [activator, partial curve] |
| C/C(Cc1ccccc1)=N\NC(=O)CNC(=O)c1ccc(C(C)(C)C)cc1 | inconclusive: 20.6 µM [activator, single point] |
| CCN(CC)C(=O)c1oc2ccc(S(=O)(=O)N3CC(C)CC(C)C3)cc2c1C (stereo unspecified) | inconclusive: 5.8 µM [inhibitor, partial curve] |

Reference: PubChem BioAssay AID504467 (National Center for Advancing Translational Sciences (NCATS), 2011)
